Laboratory results: the supplement of paper PMC6078165
Values are relative to the signal before dosing, not to a vehicle control; the signal also falls without drug.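 Fibroblast labels denote human fibroblasts, mainly primary ones from uterus (C12385, HUF), lung (H6013), bone (Hs27A), adrenal (HADF) and skin (WS1), plus mammary HMF and breast cancer-associated Hs343T. Cancer cells are basal-like or mesenchymal-like triple-negative breast cancer lines. A hit is a response shift exceeding 3x replicate standard deviation. The tissue of the other fibroblasts is not given here.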

Test system: MDAMB436
Experiment: relative JC-1 red fluorescence (viability) vs pre-drug, coculture with fibroblast (fraction); higher = more viable cancer cells
Method: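 JC-1 labelled TNBC cells cocultured 1:1 (1,500 cells each) with CellTrace Violet stained primary or stromal fibroblasts in 384-well plates in FluoroBrite medium, treated with one of 42 anticancer drugs at 0.1, 1, 10 or 100 uM. JC-1 red fluorescence (mitochondrial integrity in cancer cells only) was read by plate reader every 8 h for 72 h. Values are normalised to each well's pre-drug value. The stock of one drug was tenfold lower, so its dose labels may be too high.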

CCC1=C[C@@H]2CN(C1)Cc1c([nH]c3ccccc13)[C@@](C(=O)OC)(c1cc3c(cc1OC)N(C)[C@H]1[C@@](O)(C(=O)OC)[C@H](OC(C)=O)[C@]4(CC)C=CCN5CC[C@]31[C@@H]54)C2 [Vinorelbine]
relative JC-1 red fluorescence
Conditions	8 h	16 h	24 h	32 h	40 h	48 h	56 h	64 h	72 h
0.1 µM, coculture fibroblast: C12385	0.8364	0.699	0.7025	0.6227	0.5848	0.5608	0.54983	0.537	0.546
0.1 µM, coculture fibroblast: H6013	0.906	0.806	0.81	0.823	0.842	0.877	0.868	0.875	0.857
0.1 µM, coculture fibroblast: H6019	0.765	0.713	0.712	0.667	0.659	0.655	0.643	0.64	0.64
0.1 µM, coculture fibroblast: H6076	0.767	0.7304	0.74	0.717	0.7241	0.719	0.76	0.769	0.788
0.1 µM, coculture fibroblast: H6231	0.8007	0.723	0.704	0.64	0.62	0.592	0.585	0.565	0.549
0.1 µM, coculture fibroblast: HADF	0.878	0.773	0.754	0.7241	0.714	0.719	0.666	0.665	0.637
0.1 µM, coculture fibroblast: HCFa	0.871	0.758	0.731	0.693	0.663	0.67	0.612	0.606	0.546
0.1 µM, coculture fibroblast: HCPF	0.818	0.743	0.737	0.684	0.673	0.643	0.627	0.621	0.609
0.1 µM, coculture fibroblast: HHSteC	0.901	0.868	0.882	0.877	0.808	0.792	0.854	0.841	0.798
0.1 µM, coculture fibroblast: HMF	0.8053	0.705	0.691	0.647	0.64	0.602	0.6132	0.588	0.5863
0.1 µM, coculture fibroblast: HPFa	0.922	0.8634	0.8032	0.7681	0.7578	0.7706	0.7069	0.695	0.651
0.1 µM, coculture fibroblast: HUF	0.886	0.777	0.753	0.678	0.626	0.592	0.563	0.542	0.543
0.1 µM, coculture fibroblast: Hs5	0.811	0.712	0.716	0.67	0.669	0.634	0.653	0.629	0.642
0.1 µM, coculture fibroblast: Hs27A	0.884	0.845	0.79	0.777	0.767	0.832	0.773	0.776	0.711
0.1 µM, coculture fibroblast: Hs343T	0.787	0.719	0.694	0.6576	0.634	0.5962	0.5857	0.575	0.566
0.1 µM, coculture fibroblast: WS1	0.838	0.715	0.715	0.634	0.605	0.587	0.569	0.5629	0.5664
1 µM, coculture fibroblast: C12385	0.8349	0.7278	0.726	0.663	0.632	0.605	0.577	0.565	0.558
1 µM, coculture fibroblast: H6013	0.895	0.897	0.882	0.892	0.869	0.803	0.856	0.831	0.787
1 µM, coculture fibroblast: H6019	0.792	0.7634	0.783	0.73	0.727	0.718	0.701	0.691	0.686
1 µM, coculture fibroblast: H6076	0.82	0.78	0.785	0.742	0.715	0.68	0.689	0.681	0.673
1 µM, coculture fibroblast: H6231	0.838	0.758	0.718	0.642	0.606	0.57	0.556	0.5282	0.5
1 µM, coculture fibroblast: HADF	0.88	0.805	0.802	0.766	0.755	0.772	0.705	0.6986	0.643
1 µM, coculture fibroblast: HCFa	0.8908	0.79	0.7568	0.728	0.706	0.706	0.64	0.628	0.571
1 µM, coculture fibroblast: HCPF	0.915	0.834	0.8	0.737	0.692	0.644	0.608	0.585	0.5522
1 µM, coculture fibroblast: HHSteC	0.861	0.828	0.805	0.768	0.768	0.777	0.717	0.697	0.64
1 µM, coculture fibroblast: HMF	0.8551	0.803	0.803	0.749	0.716	0.671	0.66504	0.63879	0.6158
1 µM, coculture fibroblast: HPFa	0.949	0.891	0.8588	0.8198	0.82	0.8241	0.7594	0.7381	0.685
1 µM, coculture fibroblast: HUF	0.902	0.8241	0.8043	0.728	0.675	0.6404	0.607	0.584	0.57
1 µM, coculture fibroblast: Hs5	0.806	0.761	0.7638	0.7044	0.695	0.655	0.655	0.632	0.623
1 µM, coculture fibroblast: Hs27A	0.844	0.829	0.853	0.825	0.838	0.846	0.746	0.789	0.68
1 µM, coculture fibroblast: Hs343T	0.806	0.76	0.7566	0.707	0.672	0.637	0.615	0.596	0.583
1 µM, coculture fibroblast: WS1	0.837	0.765	0.773	0.699	0.658	0.627	0.601	0.574	0.556
